Laboratory results as given in paper PMC7118351 (BMB Reports, 2020).
Counter-ions that a name gives are not always drawn.

Experiments:
Ebola trVLP replication = test: microbe, parasite or virus in culture; assay type: cell-based, Ebola virus (EBOV); settings: for EC50: Zaire ebolavirus, HEK-293T
in vitro = settings: human

SMILES | SI (selectivity index, ratio of CC50 to EC50) (Ebola trVLP replication) | EC50 (Ebola trVLP replication) [nM] | CC50 (in vitro) [µM]
CN1[C@@H]2CC[C@H]1C[C@@H](OC(c1ccccc1)c1ccccc1)C2 [Benztropine mesylate] | > 10.9 | 3100 ± 1400 | –
CN1CCC[C@@H]1CCO[C@](C)(c1ccccc1)c1ccc(Cl)cc1 [Clemastine fumarate] | > 10.2 | 3000 ± 500 | > 30
CN(C)C(=O)C(CCN1CCC(O)(c2ccc(Cl)cc2)CC1)(c1ccccc1)c1ccccc1 [Loperamide] | > 18.6 | 2000 ± 1300 | –
CNCCCC12CCC(c3ccccc31)c1ccccc12 [Maprotiline] | 26.9 ± 18.1 | 1200 ± 700 | –
